Paper PMC8816719
These are yes or no findings as the source states them, for the method shown. Binding seen in cells or lysates may run through a third protein. A yes stands for co-enrichment or nearness to the bait. Other partners may have been found. Blank lines part the entries; values can stand above or below the molecule they belong to.

Amino acid sequences for entries named in this document (tags omitted). A change or cut given only in a name is not applied to a line headed by its entry. Residues count along the entry.
UniProt O95994, residues 21-175: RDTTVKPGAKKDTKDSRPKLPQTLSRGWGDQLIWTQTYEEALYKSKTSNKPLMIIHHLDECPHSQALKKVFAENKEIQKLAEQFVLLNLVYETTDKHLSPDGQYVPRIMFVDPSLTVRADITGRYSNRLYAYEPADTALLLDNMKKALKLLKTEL
UniProt P14625, residues 22-803: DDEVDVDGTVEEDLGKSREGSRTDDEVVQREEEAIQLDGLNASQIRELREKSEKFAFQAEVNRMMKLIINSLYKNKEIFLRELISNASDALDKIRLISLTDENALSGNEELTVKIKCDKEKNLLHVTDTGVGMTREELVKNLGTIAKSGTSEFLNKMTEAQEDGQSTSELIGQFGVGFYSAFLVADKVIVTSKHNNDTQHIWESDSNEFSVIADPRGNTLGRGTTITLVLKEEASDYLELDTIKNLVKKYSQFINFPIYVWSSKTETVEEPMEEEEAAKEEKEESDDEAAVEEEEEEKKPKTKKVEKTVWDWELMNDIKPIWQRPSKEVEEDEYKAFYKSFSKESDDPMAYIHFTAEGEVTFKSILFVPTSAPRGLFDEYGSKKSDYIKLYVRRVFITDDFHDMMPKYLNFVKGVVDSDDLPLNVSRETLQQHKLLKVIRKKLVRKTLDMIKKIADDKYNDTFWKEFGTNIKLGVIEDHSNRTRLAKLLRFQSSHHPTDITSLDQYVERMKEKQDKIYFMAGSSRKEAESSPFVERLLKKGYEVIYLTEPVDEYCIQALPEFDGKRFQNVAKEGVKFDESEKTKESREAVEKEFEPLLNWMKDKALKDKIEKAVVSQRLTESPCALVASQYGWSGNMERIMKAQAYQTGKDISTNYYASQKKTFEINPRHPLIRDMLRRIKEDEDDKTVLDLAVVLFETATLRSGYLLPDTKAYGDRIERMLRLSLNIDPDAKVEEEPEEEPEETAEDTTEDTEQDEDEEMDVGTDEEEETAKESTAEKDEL
UniProt P14314, residues 15-528: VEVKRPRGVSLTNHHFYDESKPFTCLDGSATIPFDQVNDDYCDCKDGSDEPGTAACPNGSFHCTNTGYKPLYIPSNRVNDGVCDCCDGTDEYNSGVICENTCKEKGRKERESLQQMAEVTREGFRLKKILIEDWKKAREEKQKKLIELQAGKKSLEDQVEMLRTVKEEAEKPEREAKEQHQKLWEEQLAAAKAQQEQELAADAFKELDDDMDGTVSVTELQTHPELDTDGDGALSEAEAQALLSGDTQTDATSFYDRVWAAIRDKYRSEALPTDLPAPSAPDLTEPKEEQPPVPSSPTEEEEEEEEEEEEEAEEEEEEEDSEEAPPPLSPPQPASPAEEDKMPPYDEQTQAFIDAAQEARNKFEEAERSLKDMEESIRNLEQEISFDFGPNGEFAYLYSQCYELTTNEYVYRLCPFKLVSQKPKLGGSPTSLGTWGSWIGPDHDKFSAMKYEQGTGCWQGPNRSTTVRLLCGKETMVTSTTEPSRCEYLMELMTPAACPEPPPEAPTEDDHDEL
UniProt O75369: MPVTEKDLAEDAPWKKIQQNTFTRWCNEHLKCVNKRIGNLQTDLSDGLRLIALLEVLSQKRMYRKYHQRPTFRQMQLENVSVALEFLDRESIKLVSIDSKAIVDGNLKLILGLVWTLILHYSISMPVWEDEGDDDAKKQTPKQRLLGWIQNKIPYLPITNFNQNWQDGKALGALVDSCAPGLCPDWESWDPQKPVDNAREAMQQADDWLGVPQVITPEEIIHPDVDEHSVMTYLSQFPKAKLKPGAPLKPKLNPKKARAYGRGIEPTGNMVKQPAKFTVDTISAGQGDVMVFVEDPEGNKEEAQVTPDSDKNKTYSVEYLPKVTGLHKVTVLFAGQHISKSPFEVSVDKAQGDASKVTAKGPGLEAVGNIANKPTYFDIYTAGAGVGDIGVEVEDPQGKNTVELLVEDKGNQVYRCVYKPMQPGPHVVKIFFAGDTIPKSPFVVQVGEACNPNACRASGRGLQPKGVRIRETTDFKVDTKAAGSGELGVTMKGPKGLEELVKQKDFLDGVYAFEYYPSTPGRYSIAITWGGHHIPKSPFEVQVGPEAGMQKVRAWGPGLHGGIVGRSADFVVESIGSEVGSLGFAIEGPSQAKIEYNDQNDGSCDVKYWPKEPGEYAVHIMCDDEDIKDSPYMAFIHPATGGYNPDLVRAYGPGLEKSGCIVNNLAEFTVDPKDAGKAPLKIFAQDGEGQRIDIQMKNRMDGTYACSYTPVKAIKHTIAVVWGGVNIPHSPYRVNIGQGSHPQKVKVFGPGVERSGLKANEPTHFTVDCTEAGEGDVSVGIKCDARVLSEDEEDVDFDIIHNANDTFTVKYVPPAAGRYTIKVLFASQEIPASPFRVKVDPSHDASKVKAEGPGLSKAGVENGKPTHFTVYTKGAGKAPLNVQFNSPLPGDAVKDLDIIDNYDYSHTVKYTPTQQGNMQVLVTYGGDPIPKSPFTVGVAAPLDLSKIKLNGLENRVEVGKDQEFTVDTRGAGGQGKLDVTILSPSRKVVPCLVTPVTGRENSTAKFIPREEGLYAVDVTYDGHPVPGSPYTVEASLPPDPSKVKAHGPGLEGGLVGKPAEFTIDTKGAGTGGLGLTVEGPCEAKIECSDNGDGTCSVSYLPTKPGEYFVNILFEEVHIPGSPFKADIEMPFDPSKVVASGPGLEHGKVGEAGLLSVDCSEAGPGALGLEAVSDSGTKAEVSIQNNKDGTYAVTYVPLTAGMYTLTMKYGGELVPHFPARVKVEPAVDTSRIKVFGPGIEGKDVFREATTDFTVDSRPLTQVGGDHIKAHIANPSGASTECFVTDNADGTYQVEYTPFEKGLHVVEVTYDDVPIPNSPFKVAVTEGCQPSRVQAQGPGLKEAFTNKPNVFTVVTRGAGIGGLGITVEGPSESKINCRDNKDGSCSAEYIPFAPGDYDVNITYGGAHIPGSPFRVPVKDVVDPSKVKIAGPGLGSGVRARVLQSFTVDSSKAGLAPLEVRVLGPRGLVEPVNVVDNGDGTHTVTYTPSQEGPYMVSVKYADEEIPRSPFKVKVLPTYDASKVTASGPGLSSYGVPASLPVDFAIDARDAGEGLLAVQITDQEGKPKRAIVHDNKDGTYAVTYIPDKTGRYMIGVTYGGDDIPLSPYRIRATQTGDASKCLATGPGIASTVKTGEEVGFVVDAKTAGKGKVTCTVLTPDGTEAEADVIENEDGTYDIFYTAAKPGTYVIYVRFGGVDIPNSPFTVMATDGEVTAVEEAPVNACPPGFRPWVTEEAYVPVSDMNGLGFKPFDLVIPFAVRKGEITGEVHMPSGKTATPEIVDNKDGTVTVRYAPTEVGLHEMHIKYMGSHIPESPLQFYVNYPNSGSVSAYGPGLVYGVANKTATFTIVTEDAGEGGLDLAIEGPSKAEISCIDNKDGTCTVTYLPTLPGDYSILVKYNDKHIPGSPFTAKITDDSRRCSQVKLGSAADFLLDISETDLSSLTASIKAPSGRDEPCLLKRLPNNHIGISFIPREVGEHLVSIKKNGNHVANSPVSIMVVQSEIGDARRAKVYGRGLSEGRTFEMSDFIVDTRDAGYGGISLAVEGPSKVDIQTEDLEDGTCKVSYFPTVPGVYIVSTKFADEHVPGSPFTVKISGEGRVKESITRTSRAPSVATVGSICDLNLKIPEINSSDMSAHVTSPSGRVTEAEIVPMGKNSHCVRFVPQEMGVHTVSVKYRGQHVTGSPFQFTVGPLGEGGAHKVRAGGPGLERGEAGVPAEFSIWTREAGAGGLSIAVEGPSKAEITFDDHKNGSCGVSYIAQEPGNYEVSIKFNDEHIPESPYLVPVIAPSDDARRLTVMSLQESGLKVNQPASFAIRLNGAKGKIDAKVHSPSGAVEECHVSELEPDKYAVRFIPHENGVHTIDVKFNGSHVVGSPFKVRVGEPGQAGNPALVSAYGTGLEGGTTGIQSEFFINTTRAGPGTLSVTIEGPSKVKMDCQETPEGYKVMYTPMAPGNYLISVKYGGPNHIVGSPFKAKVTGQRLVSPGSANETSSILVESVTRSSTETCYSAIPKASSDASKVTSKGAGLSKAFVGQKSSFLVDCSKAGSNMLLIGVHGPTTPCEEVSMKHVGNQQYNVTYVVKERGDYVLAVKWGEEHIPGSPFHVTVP
UniProt P11021, residues 19-654: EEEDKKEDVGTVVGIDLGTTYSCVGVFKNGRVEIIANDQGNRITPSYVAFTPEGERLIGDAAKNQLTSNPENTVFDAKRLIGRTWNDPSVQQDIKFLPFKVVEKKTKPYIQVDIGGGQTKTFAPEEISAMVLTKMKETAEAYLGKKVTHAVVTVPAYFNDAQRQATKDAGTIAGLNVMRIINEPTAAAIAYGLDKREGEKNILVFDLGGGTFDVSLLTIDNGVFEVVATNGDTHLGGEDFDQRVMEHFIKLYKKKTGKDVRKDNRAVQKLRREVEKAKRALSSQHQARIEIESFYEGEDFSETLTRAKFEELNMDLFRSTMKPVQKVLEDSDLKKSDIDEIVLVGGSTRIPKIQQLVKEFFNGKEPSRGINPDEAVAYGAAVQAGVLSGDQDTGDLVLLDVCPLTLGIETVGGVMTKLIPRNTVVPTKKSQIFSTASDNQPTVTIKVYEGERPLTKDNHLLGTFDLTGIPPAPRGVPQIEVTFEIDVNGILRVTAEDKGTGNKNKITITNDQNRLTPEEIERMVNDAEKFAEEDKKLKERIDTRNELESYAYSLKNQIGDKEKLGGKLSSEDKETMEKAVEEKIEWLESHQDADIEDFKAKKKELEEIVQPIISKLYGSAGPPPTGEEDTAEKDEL
UniProt P38646, residues 47-679: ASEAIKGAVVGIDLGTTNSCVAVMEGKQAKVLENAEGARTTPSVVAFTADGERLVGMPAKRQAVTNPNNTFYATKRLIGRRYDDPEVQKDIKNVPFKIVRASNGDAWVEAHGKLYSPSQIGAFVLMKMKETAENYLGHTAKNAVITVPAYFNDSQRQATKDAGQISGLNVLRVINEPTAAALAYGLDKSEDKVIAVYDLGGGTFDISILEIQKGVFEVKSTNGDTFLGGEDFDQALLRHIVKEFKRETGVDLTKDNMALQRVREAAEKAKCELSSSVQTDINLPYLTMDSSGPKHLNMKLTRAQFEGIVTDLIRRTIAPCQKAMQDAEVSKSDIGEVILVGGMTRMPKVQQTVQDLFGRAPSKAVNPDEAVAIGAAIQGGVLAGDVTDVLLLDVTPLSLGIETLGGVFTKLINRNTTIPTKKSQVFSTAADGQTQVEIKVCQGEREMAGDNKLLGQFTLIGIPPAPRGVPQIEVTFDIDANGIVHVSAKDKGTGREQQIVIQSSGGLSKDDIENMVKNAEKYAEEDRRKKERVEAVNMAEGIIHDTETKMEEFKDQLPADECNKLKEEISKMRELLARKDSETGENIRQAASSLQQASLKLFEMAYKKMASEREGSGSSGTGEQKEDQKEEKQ
UniProt P30101, residues 25-505: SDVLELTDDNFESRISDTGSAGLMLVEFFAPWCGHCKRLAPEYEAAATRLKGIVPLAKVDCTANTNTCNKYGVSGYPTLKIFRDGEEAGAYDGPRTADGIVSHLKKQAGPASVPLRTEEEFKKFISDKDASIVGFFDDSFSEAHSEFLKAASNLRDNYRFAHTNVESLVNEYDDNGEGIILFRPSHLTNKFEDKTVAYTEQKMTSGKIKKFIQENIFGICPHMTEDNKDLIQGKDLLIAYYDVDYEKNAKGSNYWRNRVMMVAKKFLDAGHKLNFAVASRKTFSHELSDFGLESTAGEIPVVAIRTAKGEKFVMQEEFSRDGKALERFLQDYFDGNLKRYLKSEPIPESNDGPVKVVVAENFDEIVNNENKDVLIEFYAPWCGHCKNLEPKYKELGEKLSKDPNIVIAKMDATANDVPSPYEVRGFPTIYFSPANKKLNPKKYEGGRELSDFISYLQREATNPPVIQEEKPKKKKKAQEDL

Key:
[1] = target: Anterior gradient 2 (AGR2), endogenous (human (endogenous in T47D, A549)) (UniProt O95994); experiment: affinity purification with mass spectrometry; T47D cells crosslinked in vivo with 0.6 mM DSP (control: no DSP); 400 ug lysate incubated overnight at 4 °C with biotinylated E7 peptide on streptavidin-agarose to capture endogenous AGR2 with its partners (F4 peptide as control); elution with 0.1 M glycine pH 2.5; LC-MS/MS with label-free quantification
[2] = target: Anterior gradient 2 (AGR2), stably expressed in H1299-LZ4-AGR2 cells (human) (UniProt O95994); experiment: affinity purification with mass spectrometry; DSP-crosslinked H1299-AGR2 (heavy R10K8) and H1299 (light R0K0) lysates mixed 200 ug + 200 ug; overnight at 4 °C with biotinylated E7 peptide on streptavidin-agarose to capture AGR2 with its partners (F4 peptide as control); elution with 0.1 M glycine pH 2.5; LC-MS/MS with SILAC quantification

binding [1]: binds | binding [2]: binds
Molecule: calreticulin (CALR) (from UniProt P27797 18-417)

binding [1]: binds | binding [2]: binds
Molecule: endoplasmin (ENPL) (from UniProt P14625 22-803)

binding [1]: binds | binding [2]: binds
Molecule: glucosidase 2 subunit beta (GLU2B) (from UniProt P14314 15-528)

binding [1]: binds | binding [2]: binds
Molecule: filamin-B (FLNB) (from UniProt O75369 1-2602)

binding [1]: binds | binding [2]: binds
B4: ribophorin 1 (RPN1) (protein, UniProt P04843 24-607)
chain: ASSEAPPLINEDVKRTVDLSSHLAKVTAEVVLAHLGGGSTSRATSFLLALEPELEARLAHLGVQVKGEDEEENNLEVRETKIKGKSGRFFTVKLPVALDPGAKISVIVETVYTHVLHPYPTQITQSEKQFVVFEGNHYFYSPYPTKTQTMRVKLASRNVESYTKLGNPTRSEDLLDYGPFRDVPAYSQDTFKVHYENNSPFLTITSMTRVIEVSHWGNIAVEENVDLKHTGAVLKGPFSRYDYQRQPDSGISSIRSFKTILPAAAQDVYYRDEIGNVSTSHLLILDDSVEMEIRPRFPLFGGWKTHYIVGYNLPSYEYLYNLGDQYALKMRFVDHVFDEQVIDSLTVKIILPEGAKNIEIDSPYEISRAPDELHYTYLDTFGRPVIVAYKKNLVEQHIQDIVVHYTFNKVLMLQEPLLVVAAFYILFFTVIIYVRLDFSITKDPAAEARMKVACITEQVLTLVNKRIGLYRHFDETVNRYKQSRDISTLNSGKKSLETEHKALTSEIALLQSRLKTEGSDLCDRVSEMQKLDAQVKELVLKSAVEAERLVAGKLKKDTYIENEKLISGKRQELVTKIDHILDAL

binding [1]: binds | binding [2]: binds
B6: propionyl-CoA carboxylase alpha chain (PCCA) (protein, UniProt P05165 53-728)
chain: SVGYDPNEKTFDKILVANRGEIACRVIRTCKKMGIKTVAIHSDVDASSVHVKMADEAVCVGPAPTSKSYLNMDAIMEAIKKTRAQAVHPGYGFLSENKEFARCLAAEDVVFIGPDTHAIQAMGDKIESKLLAKKAEVNTIPGFDGVVKDAEEAVRIAREIGYPVMIKASAGGGGKGMRIAWDDEETRDGFRLSSQEAASSFGDDRLLIEKFIDNPRHIEIQVLGDKHGNALWLNERECSIQRRNQKVVEEAPSIFLDAETRRAMGEQAVALARAVKYSSAGTVEFLVDSKKNFYFLEMNTRLQVEHPVTECITGLDLVQEMIRVAKGYPLRHKQADIRINGWAVECRVYAEDPYKSFGLPSIGRLSQYQEPLHLPGVRVDSGIQPGSDISIYYDPMISKLITYGSDRTEALKRMADALDNYVIRGVTHNIALLREVIINSRFVKGDISTKFLSDVYPDGFKGHMLTKSEKNQLLAIASSLFVAFQLRAQHFQENSRMPVIKPDIANWELSVKLHDKVHTVVASNNGSVFSVEVDGSKLNVTSTWNLASPLLSVSVDGTQRTVQCLSREAGGNMSIQFLGTVYKVNILTRLAAELNKFMLEKVTEDTSSVLRSPMPGVVVAVSVKPGDAVAEGQEICVIEAMKMQNSMTAGKTGTVKSVHCQAGDTVGEGDLLVELE

Continued, molecule first:

Molecule: Heat shock 70 kDa protein 5 (glucose-regulated protein, 78 kDa) (from UniProt P11021 19-654)
binding [1]: binds | binding [2]: binds

Molecule: Stress-70 protein (mitochondrial), 75 kDa glucose-regulated chaperone GRP75/HSPA9 (from UniProt P38646 47-679)
binding [1]: binds | binding [2]: binds

Molecule: Protein disulfide isomerase family A, member 3 (PDIA3) (from UniProt P30101 25-505)
binding [1]: binds | binding [2]: binds

B1: Protein disulfide isomerase family A, member 6 (PDIA6) (protein, UniProt Q15084 20-440)
chain: LYSSSDDVIELTPSNFNREVIQSDSLWLVEFYAPWCGHCQRLTPEWKKAATALKDVVKVGAVDADKHHSLGGQYGVQGFPTIKIFGSNKNRPEDYQGGRTGEAIVDAALSALRQLVKDRLGGRSGGYSSGKQGRSDSSSKKDVIELTDDSFDKNVLDSEDVWMVEFYAPWCGHCKNLEPEWAAAASEVKEQTKGKVKLAAVDATVNQVLASRYGIRGFPTIKIFQKGESPVDYDGGRTRSDIVSRALDLFSDNAPPPELLEIINEDIAKRTCEEHQLCVVAVLPHILDTGAAGRNSYLEVLLKLADKYKKKMWGWLWTEAGAQSELETALGIGGFGYPAMAAINARKMKFALLKGSFSEQGINEFLRELSFGRGSTAPVGGGAFPTIVEREPWDGRDGELPVEDDIDLSDVELDDLGKDEL
binding [1]: binds | binding [2]: binds

B2: CMC2 (protein, UniProt Q9UJS0 1-675)
chain: MAAAKVALTKRADPAELRTIFLKYASIEKNGEFFMSPNDFVTRYLNIFGESQPNPKTVELLSGVVDQTKDGLISFQEFVAFESVLCAPDALFMVAFQLFDKAGKGEVTFEDVKQVFGQTTIHQHIPFNWDSEFVQLHFGKERKRHLTYAEFTQFLLEIQLEHAKQAFVQRDNARTGRVTAIDFRDIMVTIRPHVLTPFVEECLVAAAGGTTSHQVSFSYFNGFNSLLNNMELIRKIYSTLAGTRKDVEVTKEEFVLAAQKFGQVTPMEVDILFQLADLYEPRGRMTLADIERIAPLEEGTLPFNLAEAQRQKASGDSARPVLLQVAESAYRFGLGSVAGAVGATAVYPIDLVKTRMQNQRSTGSFVGELMYKNSFDCFKKVLRYEGFFGLYRGLLPQLLGVAPEKAIKLTVNDFVRDKFMHKDGSVPLAAEILAGGCAGGSQVIFTNPLEIVKIRLQVAGEITTGPRVSALSVVRDLGFFGIYKGAKACFLRDIPFSAIYFPCYAHVKASFANEDGQVSPGSLLLAGAIAGMPAASLVTPADVIKTRLQVAARAGQTTYSGVIDCFRKILREEGPKALWKGAGARVFRSSPQFGVTLLTYELLQRWFYIDFGGVKPMGSEPVPKSRINLPAPNPDHVGGYKLAVATFAGIENKFGLYLPLFKPSVSTSKAIGGGP
binding [1]: binds

B3: Malate dehydrogenase, mitochondrial (protein, UniProt P40926 25-338)
chain: AKVAVLGASGGIGQPLSLLLKNSPLVSRLTLYDIAHTPGVAADLSHIETKAAVKGYLGPEQLPDCLKGCDVVVIPAGVPRKPGMTRDDLFNTNATIVATLTAACAQHCPEAMICVIANPVNSTIPITAEVFKKHGVYNPNKIFGVTTLDIVRANTFVAELKGLDPARVNVPVIGGHAGKTIIPLISQCTPKVDFPQDQLTALTGRIQEAGTEVVKAKAGAGSATLSMAYAGARFVFSLVDAMNGKEGVVECSFVKSQETECTYFSTPLLLGKKGIEKNLGIGKVSSFEEKMISDAIPELKASIKKGEDFVKTLK
binding [1]: binds

B5: MCCA (protein, UniProt Q96RQ3 42-725)
chain: TTATGRNITKVLIANRGEIACRVMRTAKKLGVQTVAVYSEADRNSMHVDMADEAYSIGPAPSQQSYLSMEKIIQVAKTSAAQAIHPGCGFLSENMEFAELCKQEGIIFIGPPPSAIRDMGIKSTSKSIMAAAGVPVVEGYHGEDQSDQCLKEHARRIGYPVMIKAVRGGGGKGMRIVRSEQEFQEQLESARREAKKSFNDDAMLIEKFVDTPRHVEVQVFGDHHGNAVYLFERDCSVQRRHQKIIEEAPAPGIKSEVRKKLGEAAVRAAKAVNYVGAGTVEFIMDSKHNFCFMEMNTRLQVEHPVTEMITGTDLVEWQLRIAAGEKIPLSQEEITLQGHAFEARIYAEDPSNNFMPVAGPLVHLSTPRADPSTRIETGVRQGDEVSVHYDPMIAKLVVWAADRQAALTKLRYSLRQYNIVGLHTNIDFLLNLSGHPEFEAGNVHTDFIPQHHKQLLLSRKAAAKESLCQAALGLILKEKAMTDTFTLQAHDQFSPFSSSSGRRLNISYTRNMTLKDGKNNVAIAVTYNHDGSYSMQIEDKTFQVLGNLYSEGDCTYLKCSVNGVASKAKLIILENTIYLFSKEGSIEIDIPVPKYLSSVSSQETQGGPLAPMTGTIEKVFVKAGDKVKAGDSLMVMIAMKMEHTIKSPKDGTVKKVFYREGAQANRHTPLVEFEEEESDKRESE
binding [1]: binds | binding [2]: binds

B7: Thioredoxin (protein, UniProt P10599 1-105)
chain: MVKQIESKTAFQEALDAAGDKLVVVDFSATWCGPCKMIKPFFHSLSEKYSNVIFLEVDVDDCQDVASECEVKCMPTFQFFKKGQKVGEFSGANKEKLEATINELV
binding [1]: binds

B8: Peroxiredoxin 4 (protein, UniProt Q13162 38-271)
chain: WETEERPRTREEECHFYAGGQVYPGEASRVSVADHSLHLSKAKISKPAPYWEGTAVIDGEFKELKLTDYRGKYLVFFFYPLDFTFVCPTEIIAFGDRLEEFRSINTEVVACSVDSQFTHLAWINTPRRQGGLGPIRIPLLSDLTHQISKDYGVYLEDSGHTLRGLFIIDDKGILRQITLNDLPVGRSVDETLRLVQAFQYTDKHGEVCPAGWKPGSETIIPDPAGKLKYFDKLN
binding [1]: binds

B9: HYOU1 (protein, UniProt Q9Y4L1 33-999)
chain: LAVMSVDLGSESMKVAIVKPGVPMEIVLNKESRRKTPVIVTLKENERFFGDSAASMAIKNPKATLRYFQHLLGKQADNPHVALYQARFPEHELTFDPQRQTVHFQISSQLQFSPEEVLGMVLNYSRSLAEDFAEQPIKDAVITVPVFFNQAERRAVLQAARMAGLKVLQLINDNTATALSYGVFRRKDINTTAQNIMFYDMGSGSTVCTIVTYQMVKTKEAGMQPQLQIRGVGFDRTLGGLEMELRLRERLAGLFNEQRKGQRAKDVRENPRAMAKLLREANRLKTVLSANADHMAQIEGLMDDVDFKAKVTRVEFEELCADLFERVPGPVQQALQSAEMSLDEIEQVILVGGATRVPRVQEVLLKAVGKEELGKNINADEAAAMGAVYQAAALSKAFKVKPFVVRDAVVYPILVEFTREVEEEPGIHSLKHNKRVLFSRMGPYPQRKVITFNRYSHDFNFHINYGDLGFLGPEDLRVFGSQNLTTVKLKGVGDSFKKYPDYESKGIKAHFNLDESGVLSLDRVESVFETLVEDSAEEESTLTKLGNTISSLFGGGTTPDAKENGTDTVQEEEESPAEGSKDEPGEQVELKEEAEAPVEDGSQPPPPEPKGDATPEGEKATEKENGDKSEAQKPSEKAEAGPEGVAPAPEGEKKQKPARKRRMVEEIGVELVVLDLPDLPEDKLAQSVQKLQDLTLRDLEKQEREKAANSLEAFIFETQDKLYQPEYQEVSTEEQREEISGKLSAASTWLEDEGVGATTVMLKEKLAELRKLCQGLFFRVEERKKWPERLSALDNLLNHSSMFLKGARLIPEMDQIFTEVEMTTLEKVINETWAWKNATLAEQAKLPATEKPVLLSKDIEAKMMALDREVQYLLNKAKFTKPRPRPKDKNGTRAEPPLNASASDQGEKVIPPAGQTEDAEPISEPEKVETGSEPGDTEPLELGGPGAEPEQKEQSTGQKRPLKNDEL
binding [1]: binds
